Experimental data as given in the supplement of paper PMC10849652.
The list shows a part of the results.

Sequences of proteins named here, by UniProt entry; tags and fusion partners are left off. A change or cut given only in a name is not applied to a line headed by its entry.
UniProt P51159: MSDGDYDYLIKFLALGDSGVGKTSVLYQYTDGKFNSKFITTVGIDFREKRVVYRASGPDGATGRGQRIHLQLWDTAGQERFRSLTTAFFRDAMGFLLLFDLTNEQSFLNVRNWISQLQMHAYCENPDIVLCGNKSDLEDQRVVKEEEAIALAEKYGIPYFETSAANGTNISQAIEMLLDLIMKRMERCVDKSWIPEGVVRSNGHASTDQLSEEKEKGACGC
UniProt Q9BUV8: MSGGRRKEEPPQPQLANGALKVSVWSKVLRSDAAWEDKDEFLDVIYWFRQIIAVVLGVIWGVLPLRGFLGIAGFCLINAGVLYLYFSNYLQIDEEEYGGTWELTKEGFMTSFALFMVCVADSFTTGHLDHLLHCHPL
UniProt P51151: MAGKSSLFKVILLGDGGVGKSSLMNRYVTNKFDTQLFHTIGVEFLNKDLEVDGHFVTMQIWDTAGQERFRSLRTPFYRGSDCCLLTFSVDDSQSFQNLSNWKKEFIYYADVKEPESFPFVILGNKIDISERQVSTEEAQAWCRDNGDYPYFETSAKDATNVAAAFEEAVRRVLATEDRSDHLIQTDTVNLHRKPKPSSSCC
UniProt P11234: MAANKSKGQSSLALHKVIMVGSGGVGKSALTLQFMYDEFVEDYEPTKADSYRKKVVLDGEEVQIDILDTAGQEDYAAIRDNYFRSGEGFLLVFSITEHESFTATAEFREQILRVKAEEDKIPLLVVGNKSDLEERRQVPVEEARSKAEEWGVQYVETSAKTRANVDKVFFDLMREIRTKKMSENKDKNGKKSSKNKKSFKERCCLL
UniProt Q6VN20, whole entry, looked up: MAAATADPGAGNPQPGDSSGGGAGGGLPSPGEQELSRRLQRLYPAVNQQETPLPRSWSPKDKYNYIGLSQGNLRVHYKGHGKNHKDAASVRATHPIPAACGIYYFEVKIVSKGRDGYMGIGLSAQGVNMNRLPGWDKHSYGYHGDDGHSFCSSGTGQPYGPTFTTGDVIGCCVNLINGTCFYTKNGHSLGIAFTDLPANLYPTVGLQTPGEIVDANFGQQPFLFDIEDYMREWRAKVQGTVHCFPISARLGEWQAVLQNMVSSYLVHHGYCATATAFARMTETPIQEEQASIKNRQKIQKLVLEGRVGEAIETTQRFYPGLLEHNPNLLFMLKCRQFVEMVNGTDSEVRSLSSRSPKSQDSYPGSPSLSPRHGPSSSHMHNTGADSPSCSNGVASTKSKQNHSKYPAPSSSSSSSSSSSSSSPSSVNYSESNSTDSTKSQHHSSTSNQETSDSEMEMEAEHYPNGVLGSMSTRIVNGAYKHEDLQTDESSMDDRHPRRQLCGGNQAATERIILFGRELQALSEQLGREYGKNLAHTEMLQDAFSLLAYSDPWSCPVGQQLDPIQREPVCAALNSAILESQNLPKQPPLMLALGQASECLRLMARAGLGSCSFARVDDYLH
UniProt Q92930: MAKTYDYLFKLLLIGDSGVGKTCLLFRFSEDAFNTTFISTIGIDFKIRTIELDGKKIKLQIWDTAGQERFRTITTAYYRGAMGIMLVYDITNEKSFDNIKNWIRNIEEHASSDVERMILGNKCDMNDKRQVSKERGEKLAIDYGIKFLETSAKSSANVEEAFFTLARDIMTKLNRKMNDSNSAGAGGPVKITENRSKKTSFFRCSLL
UniProt O14966: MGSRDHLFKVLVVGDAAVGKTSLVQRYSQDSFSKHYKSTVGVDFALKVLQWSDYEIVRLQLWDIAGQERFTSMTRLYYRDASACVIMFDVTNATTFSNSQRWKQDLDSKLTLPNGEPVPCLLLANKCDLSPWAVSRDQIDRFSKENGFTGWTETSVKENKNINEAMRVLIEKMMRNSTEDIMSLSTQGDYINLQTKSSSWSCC
UniProt Q8N0T1: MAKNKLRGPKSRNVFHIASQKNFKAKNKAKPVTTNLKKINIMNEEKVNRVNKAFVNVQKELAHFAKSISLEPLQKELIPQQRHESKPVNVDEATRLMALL
UniProt O43251: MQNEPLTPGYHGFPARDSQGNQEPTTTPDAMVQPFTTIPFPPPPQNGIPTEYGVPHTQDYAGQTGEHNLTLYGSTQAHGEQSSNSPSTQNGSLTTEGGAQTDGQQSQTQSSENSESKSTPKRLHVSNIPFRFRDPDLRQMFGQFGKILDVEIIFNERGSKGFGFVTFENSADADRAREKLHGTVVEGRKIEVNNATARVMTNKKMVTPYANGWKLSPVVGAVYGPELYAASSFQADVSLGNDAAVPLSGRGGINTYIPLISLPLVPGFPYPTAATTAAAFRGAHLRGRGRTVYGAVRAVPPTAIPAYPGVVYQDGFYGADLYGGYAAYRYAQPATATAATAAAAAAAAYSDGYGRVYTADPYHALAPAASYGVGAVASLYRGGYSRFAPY
UniProt P54136: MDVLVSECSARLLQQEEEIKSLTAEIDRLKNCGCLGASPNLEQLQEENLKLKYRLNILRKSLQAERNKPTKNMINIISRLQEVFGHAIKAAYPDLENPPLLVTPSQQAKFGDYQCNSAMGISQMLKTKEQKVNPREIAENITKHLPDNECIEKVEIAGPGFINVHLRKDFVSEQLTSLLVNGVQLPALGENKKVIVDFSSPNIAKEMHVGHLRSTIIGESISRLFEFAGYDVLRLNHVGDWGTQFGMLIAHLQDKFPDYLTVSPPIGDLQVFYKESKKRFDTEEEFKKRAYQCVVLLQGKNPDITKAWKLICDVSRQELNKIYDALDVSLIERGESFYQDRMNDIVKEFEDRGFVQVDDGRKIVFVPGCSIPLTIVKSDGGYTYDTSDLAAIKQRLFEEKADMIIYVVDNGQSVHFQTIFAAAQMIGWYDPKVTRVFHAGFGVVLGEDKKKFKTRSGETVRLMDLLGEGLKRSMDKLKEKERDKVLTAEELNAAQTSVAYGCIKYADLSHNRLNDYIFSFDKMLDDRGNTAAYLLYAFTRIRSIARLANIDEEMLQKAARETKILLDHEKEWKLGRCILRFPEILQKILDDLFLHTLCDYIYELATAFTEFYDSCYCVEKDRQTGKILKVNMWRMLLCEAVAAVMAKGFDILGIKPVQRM
UniProt P11233: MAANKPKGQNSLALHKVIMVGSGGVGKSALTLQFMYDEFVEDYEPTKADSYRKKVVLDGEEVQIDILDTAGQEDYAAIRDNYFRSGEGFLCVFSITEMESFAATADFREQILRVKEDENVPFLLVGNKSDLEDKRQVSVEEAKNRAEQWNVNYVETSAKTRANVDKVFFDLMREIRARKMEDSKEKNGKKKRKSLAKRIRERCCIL
UniProt P49792, whole entry, looked up: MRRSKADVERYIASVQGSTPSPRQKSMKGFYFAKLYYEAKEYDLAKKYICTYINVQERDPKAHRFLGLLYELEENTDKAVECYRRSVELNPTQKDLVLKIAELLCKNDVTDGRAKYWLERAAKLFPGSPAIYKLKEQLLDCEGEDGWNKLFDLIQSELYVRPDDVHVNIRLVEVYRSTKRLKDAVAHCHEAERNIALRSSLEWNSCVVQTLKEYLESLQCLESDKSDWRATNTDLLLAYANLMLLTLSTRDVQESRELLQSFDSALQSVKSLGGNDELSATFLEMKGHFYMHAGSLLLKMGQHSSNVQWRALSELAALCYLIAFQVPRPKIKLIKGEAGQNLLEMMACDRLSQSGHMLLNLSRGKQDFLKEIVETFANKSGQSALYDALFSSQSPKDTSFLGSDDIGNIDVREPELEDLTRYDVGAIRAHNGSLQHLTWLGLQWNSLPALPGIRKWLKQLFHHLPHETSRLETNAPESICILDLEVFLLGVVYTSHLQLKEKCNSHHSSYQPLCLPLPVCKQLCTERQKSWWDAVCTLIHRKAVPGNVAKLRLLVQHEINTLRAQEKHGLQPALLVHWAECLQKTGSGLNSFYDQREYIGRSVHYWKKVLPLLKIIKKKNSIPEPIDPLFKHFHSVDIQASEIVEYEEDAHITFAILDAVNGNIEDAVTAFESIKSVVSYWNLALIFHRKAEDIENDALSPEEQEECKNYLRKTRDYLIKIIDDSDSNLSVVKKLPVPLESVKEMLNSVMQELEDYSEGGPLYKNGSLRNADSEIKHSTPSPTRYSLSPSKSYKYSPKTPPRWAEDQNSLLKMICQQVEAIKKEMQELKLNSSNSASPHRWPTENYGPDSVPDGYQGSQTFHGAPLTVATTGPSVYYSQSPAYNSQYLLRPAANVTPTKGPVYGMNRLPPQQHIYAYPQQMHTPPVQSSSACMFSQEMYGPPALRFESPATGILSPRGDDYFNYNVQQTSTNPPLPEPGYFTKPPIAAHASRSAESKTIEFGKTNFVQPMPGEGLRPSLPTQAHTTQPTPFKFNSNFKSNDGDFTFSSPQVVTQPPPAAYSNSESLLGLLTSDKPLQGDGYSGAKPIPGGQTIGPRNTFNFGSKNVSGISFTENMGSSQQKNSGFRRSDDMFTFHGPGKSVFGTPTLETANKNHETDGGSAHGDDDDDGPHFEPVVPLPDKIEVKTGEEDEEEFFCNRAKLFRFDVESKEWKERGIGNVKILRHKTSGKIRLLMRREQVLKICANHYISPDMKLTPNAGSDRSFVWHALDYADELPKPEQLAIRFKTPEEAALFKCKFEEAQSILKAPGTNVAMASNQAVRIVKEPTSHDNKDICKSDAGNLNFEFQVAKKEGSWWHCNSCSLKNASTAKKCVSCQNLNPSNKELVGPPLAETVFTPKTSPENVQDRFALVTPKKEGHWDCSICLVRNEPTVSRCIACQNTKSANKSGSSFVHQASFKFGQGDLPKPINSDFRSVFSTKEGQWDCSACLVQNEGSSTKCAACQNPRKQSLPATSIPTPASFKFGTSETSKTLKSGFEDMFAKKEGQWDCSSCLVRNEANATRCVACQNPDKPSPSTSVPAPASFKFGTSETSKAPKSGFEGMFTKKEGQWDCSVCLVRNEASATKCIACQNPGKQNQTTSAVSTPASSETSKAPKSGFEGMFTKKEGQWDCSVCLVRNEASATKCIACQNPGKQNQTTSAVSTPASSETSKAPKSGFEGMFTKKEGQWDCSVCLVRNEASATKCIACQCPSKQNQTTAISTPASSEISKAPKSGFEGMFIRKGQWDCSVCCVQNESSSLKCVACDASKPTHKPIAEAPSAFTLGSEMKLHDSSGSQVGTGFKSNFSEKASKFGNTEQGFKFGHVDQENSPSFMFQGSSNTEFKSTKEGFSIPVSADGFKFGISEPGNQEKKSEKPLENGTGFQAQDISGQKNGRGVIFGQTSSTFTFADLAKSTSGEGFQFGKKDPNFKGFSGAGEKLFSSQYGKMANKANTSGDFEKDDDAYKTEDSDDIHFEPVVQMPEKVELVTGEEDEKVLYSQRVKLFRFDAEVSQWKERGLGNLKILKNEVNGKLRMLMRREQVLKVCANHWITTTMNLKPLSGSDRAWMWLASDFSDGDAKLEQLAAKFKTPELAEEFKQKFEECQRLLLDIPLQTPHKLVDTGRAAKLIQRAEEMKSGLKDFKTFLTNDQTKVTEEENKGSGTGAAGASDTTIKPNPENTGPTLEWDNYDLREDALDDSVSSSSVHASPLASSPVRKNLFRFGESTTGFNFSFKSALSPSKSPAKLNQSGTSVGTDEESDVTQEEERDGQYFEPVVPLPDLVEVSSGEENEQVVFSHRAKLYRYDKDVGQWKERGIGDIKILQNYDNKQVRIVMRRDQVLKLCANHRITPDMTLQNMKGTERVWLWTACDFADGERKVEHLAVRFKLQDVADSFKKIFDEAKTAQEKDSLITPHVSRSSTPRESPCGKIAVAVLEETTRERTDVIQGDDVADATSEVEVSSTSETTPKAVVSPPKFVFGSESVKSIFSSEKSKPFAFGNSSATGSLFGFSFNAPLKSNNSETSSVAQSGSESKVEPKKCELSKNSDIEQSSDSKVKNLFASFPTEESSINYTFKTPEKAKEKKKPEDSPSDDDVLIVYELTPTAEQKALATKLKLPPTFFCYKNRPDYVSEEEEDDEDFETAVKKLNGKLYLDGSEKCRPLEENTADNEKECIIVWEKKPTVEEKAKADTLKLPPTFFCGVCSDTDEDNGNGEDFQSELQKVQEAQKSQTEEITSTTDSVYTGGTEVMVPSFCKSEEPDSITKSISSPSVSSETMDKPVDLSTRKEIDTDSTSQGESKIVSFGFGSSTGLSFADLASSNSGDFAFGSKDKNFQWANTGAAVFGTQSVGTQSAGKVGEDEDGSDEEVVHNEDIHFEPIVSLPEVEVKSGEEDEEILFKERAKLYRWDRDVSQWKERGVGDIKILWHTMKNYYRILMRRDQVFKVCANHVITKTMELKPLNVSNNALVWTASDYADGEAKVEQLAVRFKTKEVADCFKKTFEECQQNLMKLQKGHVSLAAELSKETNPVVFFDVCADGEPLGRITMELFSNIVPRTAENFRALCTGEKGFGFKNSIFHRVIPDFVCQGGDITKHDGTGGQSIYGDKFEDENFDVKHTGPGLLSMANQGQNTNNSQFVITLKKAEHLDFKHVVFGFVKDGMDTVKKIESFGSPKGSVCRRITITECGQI

Columns and labels:
Test in all cases: log2 fold change, soluble protein after heating vs DMSO (PISA); higher = thermal stabilisation; K562 cells, 10 uM, 30 min; active = over 0.2 and 3.5 SD of the protein, either way, in both replicates (recomputed)
[1] = compound: CC1=C(C=C(C=C1)NC(=O)C2=CC(=CC=C2)C(C)(C)C#N)NC3=CC4=C(C=C3)N=CN(C4=O)C
In short: (§1)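 Soluble protein was quantified by TMTpro 16plex LC-MS/MS after channel sums were equalised. It was obtained as the supernatant after 21,000xg for 90 min from pooled aliquots of K562 cells (2×10^6 cells/mL, 10 μM compound, 30 min) heated for 3 min across 48°C-58°C and extracted in PBS with 0.5% NP-40 at 4°C. Thermal stability values are relative to control samples and come from duplicates. They are given as log2 fold changes.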

[2] = compound: CC1=C(C=C(C=C1)NC(=O)C2=CC(=CC=C2)N(C)C)NC(=O)C3=CC=C(C=C3)O
In short: as §1

[3] = compound: CC1=CC=C(C=C1)SC2=C3C=C(SC3=CN=C2)C(=O)N
In short: as §1

[4] = compound: CC1=NC(=CC=C1)C2=C(N=C(N2)C(C)(C)C)C3=CC4=NC=CN=C4C=C3
In short: as §1

Nexturastat A = compound: CCCCN(Cc1ccc(C(=O)NO)cc1)C(=O)Nc1ccccc1 [Nexturastat A]
In short: as §1

vemurafenib = compound: CCCS(=O)(=O)Nc1ccc(F)c(C(=O)c2c[nH]c3ncc(-c4ccc(Cl)cc4)cc23)c1F [vemurafenib]
In short: as §1

[5] = compound: CCCS(=O)(=O)Nc1ccc(F)c(C(=O)c2c[nH]c3ncc(Cl)cc23)c1F
In short: as §1

[6] = compound: CCCc1cc(C)[nH]c(=O)c1CNC(=O)c1cc(-c2ccnc(N3CCN(C)CC3)c2)cc2c1cnn2C(C)C
In short: as §1

givinostat = compound: CCN(CC)Cc1ccc2cc(COC(=O)Nc3ccc(C(=O)NO)cc3)ccc2c1 [givinostat]
In short: as §1

barasertib = compound: CCN(CCCOc1ccc2c(Nc3cc(CC(=O)Nc4cccc(F)c4)[nH]n3)ncnc2c1)CCOP(=O)(O)O [barasertib]
In short: as §1

[7] = compound: CC[C@@H]1C(=O)N(C)c2cnc(Nc3ccc(C(=O)NC4CCN(C)CC4)cc3OC)nc2N1C1CCCC1
In short: as §1

volasertib = compound: CC[C@@H]1C(=O)N(C)c2cnc(Nc3ccc(C(=O)N[C@H]4CC[C@H](N5CCN(CC6CC6)CC5)CC4)cc3OC)nc2N1C(C)C [volasertib]
In short: as §1

[8] = compound: CC[C@H](C)N1C=C(C2=C(C=C(C=C21)C3=CN=C(C=C3)N4CCNCC4)C(=O)NCC5=C(C=C(NC5=O)C)C)C
In short: as §1

epoxomicin = compound: CC[C@H](C)[C@@H](C(=O)N[C@@H]([C@@H](C)O)C(=O)N[C@@H](CC(C)C)C(=O)[C@]1(CO1)C)NC(=O)[C@H]([C@@H](C)CC)N(C)C(=O)C [epoxomicin]
In short: as §1

[9] = compound: CCn1c(C(=O)N(C2CC2)C2CC2)cc2c3c(ncn3C)c(Nc3cc(C)n(C)n3)nc21
In short: as §1

[10] = compound: CCn1cc(-c2ccnc3[nH]c(-c4cccc(CN(C)C)c4)cc23)c(-c2ccc(NC(=O)N(C)C)cc2)n1
In short: as §1

[11] = compound: CN(C)CC(=O)Nc1ccc2[nH]c(=O)c3ccccc3c2c1
In short: as §1

rosiglitazone = compound: CN(CCOC1=CC=C(C=C1)C[C@H]2C(=O)NC(=O)S2)C3=CC=CC=N3 (racemic) [rosiglitazone]
In short: as §1

[12] = compound: CN1C2=C(C3=C1C(=O)N(N=C3)CC4=CC(=CC=C4)N)SC(=C2)S(=O)C
In short: as §1

[13] = compound: CN1CCC(CNc2ccc3ncc(-c4cccc(OC(F)(F)F)c4)n3n2)CC1
In short: as §1

| Target | log2 fold change [1] | log2 fold change [2] | log2 fold change [3] | log2 fold change [4] | log2 fold change (Nexturastat A) | log2 fold change (vemurafenib) | log2 fold change [5] | log2 fold change [6] | log2 fold change (givinostat) | log2 fold change (barasertib) | log2 fold change [7] | log2 fold change (volasertib) | log2 fold change [8] | log2 fold change (epoxomicin) | log2 fold change [9] | log2 fold change [10] | log2 fold change [11] | log2 fold change (rosiglitazone) | log2 fold change [12] | log2 fold change [13] |
| --- | --- | --- | --- | --- | --- | --- | --- | --- | --- | --- | --- | --- | --- | --- | --- | --- | --- | --- | --- | --- |
| RAB27A (UniProt P51159) | inactive: -0.008 | inactive: -0.02 | inactive: 0.006 | inactive: 0 | inactive: -0.091 | inactive: 0.011 | inactive: -0.029 | inactive: 0.005 | inactive: 0 | inactive: 0.01 | inactive: -0.003 | inactive: -0.051 | inactive: -0.019 | inactive: -0.003 | inactive: 0.012 | inactive: 0.018 | inactive: -0.001 | inactive: -0.021 | inactive: -0.062 | inactive: -0.015 |
| RAB5IF isoform 5 (UniProt Q9BUV8) | inactive: 0.044 | inactive: 0.01 | inactive: -0.042 | inactive: 0.247 | inactive: -0.143 | inactive: 0.047 | inactive: 0.012 | inactive: 0.244 | inactive: -0.007 | inactive: -0.003 | inactive: -0.025 | inactive: 0.036 | inactive: -0.129 | inactive: 0.017 |  | inactive: -0.056 | inactive: -0.031 |  | inactive: 0.003 | inactive: 0.092 |
| RAB9A (UniProt P51151) | inactive: 0.036 | inactive: 0.033 | inactive: 0.017 | inactive: 0.018 | inactive: 0.017 | inactive: -0.012 | inactive: -0.024 | inactive: 0.003 | inactive: 0.054 | inactive: -0.011 | inactive: -0.061 | inactive: -0.024 | inactive: -0.001 | inactive: 0.064 |  | inactive: 0.004 | inactive: 0.034 |  | inactive: -0.034 | active: -0.252 |
| RAC3 (UniProt P60763) | inactive: 0.025 | inactive: -0.021 | inactive: 0.084 | inactive: -0.004 | inactive: -0.042 | inactive: 0.006 | inactive: -0.006 | inactive: -0.044 | inactive: -0.037 | inactive: -0.015 | inactive: 0.039 | inactive: 0.075 | inactive: -0.082 | inactive: -0.008 |  | inactive: -0.149 | inactive: 0 |  | inactive: -0.095 | inactive: 0.035 |
| RB1 (UniProt P06400) | inactive: 0.016 | inactive: -0.011 | inactive: 0.034 | inactive: 0.003 | inactive: -0.1 | inactive: -0.01 | inactive: -0.008 | inactive: -0.026 | inactive: -0.02 | inactive: -0.004 | inactive: 0.018 | inactive: 0.034 | inactive: 0.016 | inactive: 0.041 |  | inactive: -0.05 | inactive: 0.008 |  | inactive: -0.064 | active: -0.265 |
| RABGGTA (UniProt Q92696) | inactive: 0.019 | inactive: 0.04 | inactive: -0.004 | inactive: 0.002 | inactive: -0.084 | inactive: 0.003 | inactive: 0.005 | inactive: -0.023 | inactive: -0.024 | inactive: 0.017 | inactive: 0.029 | inactive: -0.087 | inactive: -0.013 | inactive: 0.021 |  | inactive: -0.051 | inactive: -0.015 |  | inactive: -0.111 | inactive: -0.023 |
| RALB isoform 2 (UniProt P11234) | inactive: -0.018 | inactive: 0.044 | inactive: 0.026 | inactive: 0.001 | inactive: -0.111 | inactive: 0.003 | inactive: 0 | inactive: 0.106 | inactive: -0.002 | inactive: -0.018 | inactive: 0.042 | inactive: 0.079 | inactive: -0.027 | inactive: -0.033 | inactive: -0.024 | inactive: 0.062 | inactive: -0.016 | inactive: -0.002 | inactive: -0.077 | inactive: 0.083 |
| RANBP10 (UniProt Q6VN20) | inactive: -0.064 | inactive: -0.002 | inactive: -0.008 | inactive: 0.026 | inactive: -0.007 | inactive: -0.036 | inactive: -0.08 | inactive: 0.015 | inactive: -0.13 | inactive: 0.001 | inactive: 0.021 | inactive: -0.063 | inactive: -0.002 | inactive: 0.112 | inactive: -0.092 | inactive: -0.071 | inactive: 0.024 | inactive: 0.113 |  | inactive: -0.016 |
| RAB8B (UniProt Q92930) | inactive: 0.055 | inactive: 0.013 | inactive: 0.073 | inactive: 0.081 | inactive: -0.082 | inactive: 0.192 | inactive: 0.018 | inactive: 0.109 | inactive: -0.014 | inactive: -0.016 | inactive: 0.036 | inactive: 0.033 | inactive: -0.039 | inactive: 0.229 |  | inactive: 0.003 | inactive: 0.013 |  | inactive: -0.05 | inactive: 0.227 |
| RAB29 (UniProt O14966) | inactive: -0.018 | inactive: 0.036 | inactive: 0.008 | inactive: 0.001 | inactive: -0.105 | inactive: 0.017 | inactive: 0.003 | inactive: -0.053 | inactive: 0.048 | inactive: -0.029 | inactive: 0.032 | inactive: 0.065 | inactive: 0.035 | inactive: -0.057 | inactive: 0.001 | inactive: 0.027 | inactive: 0.038 | inactive: 0.03 | inactive: -0.087 | inactive: -0.018 |
| RBIS (UniProt Q8N0T1) | inactive: -0.099 | inactive: -0.011 | inactive: -0.055 | inactive: 0.023 | inactive: -0.012 | inactive: -0.002 | inactive: -0.063 | inactive: -0.074 | inactive: -0.02 | inactive: -0.009 | inactive: 0.105 | inactive: 0.06 | inactive: -0.012 | inactive: 0.204 |  | inactive: 0.075 | inactive: -0.108 |  | inactive: 0.026 | inactive: -0.034 |
| RBFOX2 isoform 8 (UniProt O43251) | inactive: -0.088 | inactive: -0.061 | inactive: 0.176 | inactive: 0.058 | inactive: 0.054 | inactive: -0.024 | inactive: 0.132 | inactive: 0.002 | inactive: 0.016 | inactive: 0.056 | inactive: -0.001 | inactive: -0.415 | inactive: 0.057 | inactive: -0.023 | inactive: -0.039 | inactive: 0.126 | inactive: -0.069 | inactive: -0.028 | inactive: -0.033 | inactive: -0.004 |
| RB1CC1 (UniProt Q8TDY2) | inactive: -0.061 | inactive: -0.005 | inactive: 0.025 | inactive: -0.031 | inactive: 0.161 | inactive: -0.022 | inactive: -0.034 | inactive: 0.147 | inactive: 0.102 | inactive: -0.008 | inactive: 0.051 | inactive: -0.022 | inactive: -0.086 | inactive: 0.063 |  | inactive: -0.07 | inactive: -0.077 |  | inactive: 0.047 | inactive: -0.116 |
| RAC1 (UniProt P63000) | inactive: 0.14 | inactive: -0.002 | inactive: -0.055 | inactive: 0.241 | inactive: -0.021 | inactive: -0.046 | inactive: -0.008 | inactive: 0.032 | inactive: -0.059 | inactive: -0.026 | inactive: -0.024 | inactive: 0.03 | inactive: 0.026 | inactive: 0.019 |  | inactive: 0.044 | inactive: 0.05 |  | inactive: -0.067 | active: 0.35 |
| RARS (UniProt P54136) | inactive: 0.005 | inactive: 0.006 | inactive: -0.011 | inactive: -0.048 | inactive: 0.325 | inactive: -0.018 | inactive: 0.058 | inactive: 0.075 | inactive: 0.016 | inactive: 0.037 | inactive: 0.059 | inactive: -0.172 | inactive: 0.072 | inactive: -0.085 |  | inactive: 0.107 | inactive: 0.013 |  | inactive: 0.26 | inactive: -0.111 |
| RALA (UniProt P11233) | inactive: -0.007 | inactive: -0.006 | inactive: 0.02 | inactive: 0.132 | inactive: 0.021 | inactive: -0.031 | inactive: 0.05 | inactive: 0.019 | inactive: -0.002 | inactive: -0.001 | inactive: 0.084 | inactive: 0.025 | inactive: -0.044 | inactive: -0.054 |  | inactive: 0.029 | inactive: -0.029 |  | inactive: -0.115 | active: 0.434 |
| RANBP2 (UniProt P49792) | inactive: 0.089 | inactive: -0.07 | inactive: -0.041 | inactive: 0.04 | inactive: 0.221 | inactive: -0.086 | inactive: 0.03 | inactive: -0.072 | inactive: 0.046 | inactive: 0.036 | inactive: 0.058 | inactive: -0.006 | inactive: -0.008 | inactive: 0 |  | inactive: 0.099 | inactive: 0.026 |  | inactive: -0.033 | inactive: -0.052 |

Only log2 fold change (volasertib), log2 fold change (epoxomicin) and log2 fold change (vemurafenib), for some of the entries so far:
Target,log2 fold change (volasertib),log2 fold change (epoxomicin),log2 fold change (vemurafenib)
RABGGTA (UniProt Q92696),inactive: -0.087,inactive: 0.021,inactive: 0.003
RALB isoform 2 (UniProt P11234),inactive: 0.079,inactive: -0.033,inactive: 0.003
